Measurements reported in PubChem BioAssay AID1259308 (NCATS, 2017)
The deposit covers about 59,000 reagents; this is a random part of them. Over the whole deposit, about 1,510 (2.6%) got an active call. 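Calls use total luciferase alone and ignore viability, so some active siRNAs may act by altering cell number.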 Reagents against one gene are numbered here. Further read-outs or replicates are left out here.

Test: 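Genes whose loss raises luciferase production in HEK293 cells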 (primary screen)
Cell system: human HEK293 embryonic kidney cells stably expressing firefly luciferase (HEK-CMV-Luc2-Hygro)
Reagents: single siRNA against human genes, 0.8 pmol siRNA per well
Timing: 72 h
Read-out: 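Luciferase light (ONE-Glo) measured on one replicate plate set and viability (CellTiter-Glo) on the other, scaled to a negative control siRNA, with robust z-scores and luciferase per cell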
Direction: total luciferase, z-score and total luciferase, % of control: higher = more reporter protein produced; luciferase per cell, z-score: higher = more reporter output per viable cell
Hit rule: 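Active when the median/MAD z-score for overall luciferase is greater than 3; a gene was taken forward for validation with new siRNAs if at least two of its three siRNAs passed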
Meaning of the calls: active = raised luciferase; inactive = no rise

The first 7 records, to show the layout:
gene,reagent,"total luciferase, z-score","total luciferase, % of control","luciferase per cell, z-score",outcome
RMI2,1,2.22,126,2.16,inactive
RMI2,2,2.43,130,2.56,inactive
RMI2,3,0.266,87.2,-0.412,inactive
NPBWR1,1,-0.981,62.4,-0.487,inactive
NPBWR1,2,0.298,87.8,0.112,inactive
NPBWR1,3,-0.457,72.8,0.64,inactive
SNX3,1,-0.0153,81.6,-0.429,inactive

Results, from the start:
gene,reagent,"total luciferase, z-score","total luciferase, % of control","luciferase per cell, z-score",outcome
RMI2,1,2.22,126,2.16,inactive
RMI2,2,2.43,130,2.56,inactive
RMI2,3,0.266,87.2,-0.412,inactive
NPBWR1,1,-0.981,62.4,-0.487,inactive
NPBWR1,2,0.298,87.8,0.112,inactive
NPBWR1,3,-0.457,72.8,0.64,inactive
SNX3,1,-0.0153,81.6,-0.429,inactive
SNX3,2,0.412,90.1,0.314,inactive
SNX3,3,0.566,93.1,0.602,inactive
GABPB2,1,-0.959,62.8,0.267,inactive
GABPB2,2,-0.188,78.1,-0.123,inactive
GABPB2,3,-0.339,75.1,-0.505,inactive
GLDC,1,0.231,86.5,-0.0121,inactive
GLDC,2,-0.705,67.9,-0.507,inactive
GLDC,3,0.0301,82.5,-0.317,inactive
IFITM2,1,0.605,93.9,0.138,inactive
IFITM2,2,-1.97,42.7,-1.25,inactive
IFITM2,3,1.87,119,0.907,inactive
PRSS44P,1,-0.503,71.9,-1.23,inactive
PRSS44P,2,0.406,90,0.11,inactive
PRSS44P,3,-0.718,67.6,-1.13,inactive
PRSS44P,4,1.19,106,0.882,inactive
PRSS44P,5,0.438,90.6,0.0218,inactive
PRSS44P,6,-0.366,74.6,-0.233,inactive
PSTPIP2,1,-0.2,77.9,0.095,inactive
PSTPIP2,2,-0.129,79.3,-0.525,inactive
PSTPIP2,3,1.45,111,0.563,inactive
SPACA1,1,0.358,89,1.55,inactive
SPACA1,2,-0.885,64.3,-0.137,inactive
SPACA1,3,0.702,95.9,0.672,inactive
FITM1,1,-2.07,40.8,-1.38,inactive
FITM1,2,1.15,105,0.962,inactive
FITM1,3,-0.783,66.3,-1.01,inactive
CDK5R1,1,1.15,105,0.633,inactive
CDK5R1,2,-0.863,64.7,0.294,inactive
CDK5R1,3,0.817,98.1,0.502,inactive
SLC26A9,1,-0.99,62.2,-1.49,inactive
SLC26A9,2,0.544,92.7,0.432,inactive
SLC26A9,3,0.438,90.6,0.747,inactive
PEX5,1,0.216,86.2,0.259,inactive
PEX5,2,1.65,115,2.18,inactive
PEX5,3,0.654,94.9,0.114,inactive
BNIP5,1,-0.437,73.2,-0.203,inactive
BNIP5,2,-0.952,62.9,-0.209,inactive
BNIP5,3,-1.66,49,-1.21,inactive
MRPL24,1,0.648,94.8,0.0919,inactive
MRPL24,2,0.506,91.9,1.1,inactive
MRPL24,3,6.15,204,2.96,active
STK24,1,1.32,108,2.23,inactive
STK24,2,-0.589,70.2,-0.817,inactive
STK24,3,-0.0338,81.2,-0.543,inactive
SGPP1,1,-0.257,76.8,-0.595,inactive
SGPP1,2,-0.194,78,-0.887,inactive
SGPP1,3,1.9,120,1.85,inactive
ONECUT3,1,1.85,119,1.67,inactive
ONECUT3,2,-0.762,66.7,-0.483,inactive
ONECUT3,3,2.1,124,2.21,inactive
